Results on two substances are retold here after publication PMC5461540, “MOB1 Mediated Phospho-recognition in the Core Mammalian Hippo Pathway” (Molecular & Cellular Proteomics : MCP, 2017).

By UniProt entry, the sequences of proteins in these tests, tags left out. Where a name states a change or a piece, a line headed by the entry shows the natural chain unless it says otherwise.
UniProt Q7L9L4: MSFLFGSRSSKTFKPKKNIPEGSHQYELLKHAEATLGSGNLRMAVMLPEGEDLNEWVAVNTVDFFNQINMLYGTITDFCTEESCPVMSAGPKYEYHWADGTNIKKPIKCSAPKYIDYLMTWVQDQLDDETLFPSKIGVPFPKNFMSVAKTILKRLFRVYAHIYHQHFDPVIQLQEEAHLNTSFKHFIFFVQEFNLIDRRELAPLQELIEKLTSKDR

The assay deals with GST-MOB1B (human) (UniProt Q7L9L4). Description: pull-down; ~1 ug GST-MOB1B on glutathione-Sepharose beads, 2 h with lysate (CHAPS lysis buffer: 40 mM Hepes pH 7.5, 120 mM NaCl, 1 mM EDTA, 0.3% CHAPS) of cells expressing FLAG- or BirA*-FLAG-tagged MST1 constructs after 150 nM okadaic acid for 2.5 h; anti-FLAG immunoblot; only the target purified. A general note: A western blot detects proteins with antibodies after separation by electrophoresis.

Results are given in words; binding and its absence hold for the method and conditions named. Binding seen in cells or lysates may run through a third protein. Binding calls can cover weak binding; strength is not graded here.

“3xFLAG-MST1 wild-type (from UniProt Q13043-1 1-487)”: the binding result is reported as “binds”.
The result for “BirA*-FLAG-tagged full-length MST1 (from UniProt Q13043-1 1-487)” reads “binds”.
